For at least one compound, name, drawing or mass did not settle the structure.
Columns and labels:
human Y5 receptor = molecular target: T1, human Y5 receptor (Homo sapiens, UniProt Q15761); test: Scintillation proximity assay (SPA) receptor binding, Y5; conditions: selectivity Y5 over Y2, Table 2 binding affinity
T1 construct: expressed in transfected cells; host or cells: HEK-293 (membrane preparation)
T1 sequence (Q15761 1-445): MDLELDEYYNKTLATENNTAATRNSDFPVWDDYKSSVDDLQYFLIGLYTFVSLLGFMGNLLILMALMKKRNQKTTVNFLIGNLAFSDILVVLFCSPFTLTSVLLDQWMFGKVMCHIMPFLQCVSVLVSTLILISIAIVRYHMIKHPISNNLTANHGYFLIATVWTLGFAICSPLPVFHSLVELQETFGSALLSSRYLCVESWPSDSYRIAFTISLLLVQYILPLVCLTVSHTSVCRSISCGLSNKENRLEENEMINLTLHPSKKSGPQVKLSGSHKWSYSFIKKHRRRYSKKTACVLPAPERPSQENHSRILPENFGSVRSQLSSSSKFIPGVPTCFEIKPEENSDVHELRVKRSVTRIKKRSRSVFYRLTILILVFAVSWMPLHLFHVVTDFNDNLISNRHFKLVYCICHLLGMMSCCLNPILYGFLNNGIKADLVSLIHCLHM
Protocol: (§1) The purpose of this example is to test the in vitro binding of the PYY compounds to the Y1, Y2, Y4 and Y5 receptor subtypes, respectively. The receptor binding affinity is a measure of affinity of a compound for the human Y1, Y2, Y4 and Y5 receptor subtypes, respectively.
(§2) Scintillation Proximity Assay (SPA)
(§3) NPY-Receptor Expressing Cell Lines.
(§4) All cells were cultured at +37° C. in a humidified atmosphere with 5% CO2. […] CHO-K1 cells stably expressing the human Y2 receptor (P49146, NPY2R_HUMAN, Uniprot) were cultured in DMEM F-12 with 10% FBS, 1% P/S, 150 μg/ml Hygromycin B and 10 μg/ml Puromycin antibiotic. CHO-K1 cells stably expressing the human Y4 receptor (P50391, NPY4R_HUMAN, Uniprot) were cultured in DMEM F-12 with 10% FBS, 1% P/S, 10 μg/ml Puromycin. HEK-293 cells stably expressing the human Y5 receptor (Q15761, NPY5R_HUMAN, Uniprot) were cultured in DMEM F-12 medium containing 10% FBS, 1% Penicillin-Streptomycin, 250 μg/ml G418 and 1 μg/ml puromycin. […]
(§5) Plates were sealed and incubated at +25° C. for 2 hours in a plate shaker set at 400 rpm and thereafter centrifuged at 1500 rpm for 10 minutes prior to reading of luminescence on a microplate scintillation and luminescence counter. […] Displacement of radioligand was measured as reduction in luminescence and IC50 values were calculated by nonlinear regression analysis of sigmoidal dose-response curves.

The chains behind the UniProt entries cited, without tags or fusion partners. Where a name states a change or a piece, a line headed by the entry shows the natural chain unless it says otherwise.
UniProt P50391: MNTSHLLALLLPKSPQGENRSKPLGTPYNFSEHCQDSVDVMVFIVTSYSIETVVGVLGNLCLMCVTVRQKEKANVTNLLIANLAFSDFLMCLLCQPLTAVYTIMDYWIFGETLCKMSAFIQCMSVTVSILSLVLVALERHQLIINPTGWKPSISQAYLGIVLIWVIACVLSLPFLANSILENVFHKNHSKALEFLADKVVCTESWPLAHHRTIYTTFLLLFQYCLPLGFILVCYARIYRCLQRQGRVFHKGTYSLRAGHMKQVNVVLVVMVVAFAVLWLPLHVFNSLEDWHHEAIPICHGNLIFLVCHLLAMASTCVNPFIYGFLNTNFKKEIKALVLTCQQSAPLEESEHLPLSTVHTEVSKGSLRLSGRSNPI

human Y4 receptor = molecular target: T2, human Y4 receptor (Homo sapiens, UniProt P50391); test: Scintillation proximity assay (SPA) receptor binding, Y4; conditions: selectivity Y4 over Y2, Table 2 binding affinity
T2 construct: expressed in transfected cells; host or cells: CHO-K1 (membrane preparation)
Protocol: as §1, §2, §3, §4, §5

CC(C)CC(=O)N[C@@H](CCCNC(=N)N)C(=O)N1CCC[C@H]1C(=O)N[C@@H](CCC(=O)O)C(=O)N[C@@H](C)C(=O)N1CCC[C@H]1C(=O)NCC(=O)N[C@@H](CCCCNC(=O)COCCOCCNC(=O)COCCOCCNC(=O)CC[C@H](NC(=O)CCCCCCCCCCCCCCCCC(=O)O)C(=O)O)C(=O)N[C@@H](CC(=O)O)C(=O)N[C@@H](C)C(=O)N[C@@H](CO)C(=O)N1CCC[C@H]1C(=O)N[C@@H](CCC(=O)O)C(=O)N[C@@H](CCC(=O)O)C(=O)N[C@@H](CC(C)C)C(=O)N[C@@H](CCC(N)=O)C(=O)N[C@@H](CCCNC(=N)N)C(=O)N[C@@H](Cc1ccc(O)cc1)C(=O)N[C@@H](Cc1ccc(O)cc1)C(=O)N[C@@H](C)C(=O)N[C@@H](CCC(=O)O)C(=O)N[C@@H](CC(C)C)C(=O)N[C@@H](CCCNC(=N)N)C(=O)N[C@@H](Cc1c[nH]cn1)C(=O)N[C@@H](Cc1ccc(O)cc1)C(=O)N[C@@H](Cc1ccc(O)cc1)C(=O)N[C@@H](CC(N)=O)C(=O)N[C@@H](Cc1c[nH]c2ccccc12)C(=O)N[C@@H](CC(C)C)C(=O)N[C@H](C(=O)N[C@@H](CCCNC(=N)N)C(=O)N[C@@H](CCC(N)=O)C(=O)N[C@@H](CCCNC(=N)N)C(=O)N[C@@H](Cc1ccc(O)cc1)C(N)=O)[C@@H](C)O [Compound 52, N{alpha-4}-(3-Methylbutanoyl)-N{Epsilon-10}-[2-[2-[2-[[2-[2-[2-[[(4S)-4-carboxy-4-(17-carboxyheptadecanoylamino)butanoyl]amino]ethoxy]ethoxy]acetyl]amino]-ethoxy]ethoxy]acetyl]-[Arg4,Lys10,Gln18,Glu23,Tyr28,Trp30,Leu31]-PYY(4-36)] was tested, and the “Ratio of Y5/Y2 EC50 values” (human Y5 receptor) was 275 and the “Ratio of Y4/Y2 EC50 values” (human Y4 receptor) was 8617.
